Data as given in PubChem BioAssay AID686943 (Drosophila RNAi Screening Center, 2013)

- Aim: 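Search across the genome for regulators of signalling from receptor tyrosine kinase to ERK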 (primary screen)
- System: Drosophila S2R+ haemocyte-like cells expressing YFP-tagged ERK (Rolled)
- Knock-down reagent: long dsRNA against Drosophila genes
- Conditions: insulin stimulation versus unstimulated cells; dose and duration not given
- Measurement: 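Antibody staining for doubly phosphorylated ERK divided by ERK-YFP signal, as plate z-scores, in insulin-treated and untreated cells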
- Direction: replicate 1, z-score of dpERK with insulin and replicate 2, z-score of dpERK with insulin: higher = more active ERK per ERK-YFP after insulin; replicate 1, z-score of dpERK under basal conditions: higher = more basal active ERK per ERK-YFP; replicate 1, z-score of ERK-YFP with insulin: higher = more YFP-tagged ERK signal
The screen tested about 23,000 reagents; shown is a random part of those that have a named target and a result. 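Extra replicates exist only for a retested subset of genes; insulin dose and duration not given; both raised and lowered dpERK matter.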 A plus sign joins genes that one reagent is predicted to hit. The record does not give: the amount of reagent, the time to read-out.

no.	Gene	PubChem SID	replicate 1, z-score of dpERK with insulin	replicate 2, z-score of dpERK with insulin	replicate 1, z-score of dpERK under basal conditions	replicate 1, z-score of ERK-YFP with insulin
1	CG14929 + CG14930	SID104182204	-0.04	0.18	0.57	1.31
2	CG4318	SID104199679	0.02	0.09	0.13	-0.01
3	Art2	SID104180419	-1.01	-0.46	1.84	-0.54
4	Polr3D	SID104190277	-0.83	-0.67	-0.28	-0.48
5	Orp8	SID104194902	1.32	-0.83	0.39	0.02
6	Orp8	SID104195504	-0.23	0	-0.48	0.11
7	Or47b	SID104187284	0.82	0.75	-0.46	-0.67
8	Obp49a	SID104201990	-0.2	0.1	0.06	0.55
9	Inx5	SID104199843	1.29	0.56	-0.48	0.01
10	Dark	SID104185714	0.37	-0.21	-0.6	-0.08
11	CG13133	SID104182022	0.07	0.59	-0.94	1.38
12	TTLL12	SID104186347	-0.06	0.44	0.25	0.56
13	Dcp-1	SID104184401	0.31	0.23	0.39	0.97
14	CG13627	SID104194421	-0.33	-0.17	-0.36	0.46
15	Ugt49B1	SID104184253	-0.15	-0.29	0.21	0.61
16	CG8010	SID104199864	0.86	0.66	-0.38	-0.37
17	vap	SID104200067	0.77	1.06	1.62	0.62
18	CG17574	SID104186473	0.31	-0.11	1.26	0.05
19	Sr-CI	SID104180582	0.05	-0.88	-0.44	0.21
20	CG34460	SID104186766	-0.35	-1.13	0.43	0.01
21	SPARC	SID104193915	0.73	0	-0.09	-0.29
22	ninaD	SID104182678	-0.17	-0.29	0.05	0.78
23	CG11158	SID104199181	0.27	0.88	-1.35	0.62
24	obst-H	SID104190727	2.27	0.14	0.41	-1.16
25	obst-H	SID104190732	0.67	-0.34	-0.95	0.29
26	Hsp70Bc	SID104195845	-0.9	-1.78	-0.8	-1.13
27	wap	SID104200418	-0.94	-0.03	1.09	0.72
28	Notum	SID104189751	0.16	-0.22	-0.14	-0.6
29	LamC	SID104187245	-0.18	-0.51	-0.4	0.06
30	asRNA:CR31084	SID104201339	0.29	-0.04	2.04	1.23
31	trol	SID104197506	0.72	0.41	-0.29	-0.54
32	trol	SID104197510	-0.76	-0.98	-0.92	-1.01
33	trol	SID104198405	-0.45	0.14	0.4	0.66
34	trol	SID104198606	0.01	0.43	1.43	0.41
35	CG13837	SID104194479	0.46	-0.93	-0.28	0.04
36	Hmgs	SID104186658	-0.5	0.1	-0.03	-0.67
37	CG16710	SID104194928	0.98	0	-0.28	0.09
38	Gfat1	SID104201011	-0.22	0.4	0.78	0.74
39	Galk	SID104190292	0.97	0.25	-0.34	0.08
40	Tep5Psi	SID104181975	0.68	0.03	0.53	-0.44
41	Tep5Psi	SID104181976	0.08	-1	-0.83	0.41
42	Actn	SID104197516	-0.07	0.55	-0.49	-0.24
43	CG18585	SID104182470	0.25	-0.16	0.71	0.1
44	CG31013	SID104196334	0.79	1.28	-0.8	0.04
45	Rab32	SID104184938	0.02	0.26	-0.46	0.2
46	Rab32	SID104187314	-0.49	0.64	0.61	0.58
47	Pp1alpha-96A	SID104196587	-0.03	0.11	0.86	0.45
48	Cep135	SID104189137	0.7	-0.88	-2.11	0.17
49	Cep135	SID104190036	-0.37	-0.17	0.39	0.6
50	nvd	SID104201691	-2.46	0.41	-0.05	0.43
51	CG30419	SID104184000	-0.74	0.91	-0.89	0.68
52	CG30419	SID104184001	0.18	-0.5	0.55	0.52
53	CG30419	SID104201965	0.26	-0.35	-0.3	0.45
54	dpr10	SID104188807	0.86	0.23	-0.87	-0.01
55	dpr10	SID104188810	0.74	0.48	-0.13	-0.4
56	dpr10	SID104189951	0.19	0.19	-0.65	0.31
57	dpr10	SID104189952	0.17	-0.2	0.61	0.37
